Source: paper doi:10.1101/2020.11.30.403980
Results are given in words; binding and its absence hold for the method and conditions named. Binding seen in cells or lysates may run through a third protein. A result given as binding can be weak or reduced; the word gives no strength. Sequences can lack the tags named with a protein.

Molecular target: T1, C-terminal GFP-tagged BBS1 (human) (UniProt Q8NFJ9)
T1 sequence: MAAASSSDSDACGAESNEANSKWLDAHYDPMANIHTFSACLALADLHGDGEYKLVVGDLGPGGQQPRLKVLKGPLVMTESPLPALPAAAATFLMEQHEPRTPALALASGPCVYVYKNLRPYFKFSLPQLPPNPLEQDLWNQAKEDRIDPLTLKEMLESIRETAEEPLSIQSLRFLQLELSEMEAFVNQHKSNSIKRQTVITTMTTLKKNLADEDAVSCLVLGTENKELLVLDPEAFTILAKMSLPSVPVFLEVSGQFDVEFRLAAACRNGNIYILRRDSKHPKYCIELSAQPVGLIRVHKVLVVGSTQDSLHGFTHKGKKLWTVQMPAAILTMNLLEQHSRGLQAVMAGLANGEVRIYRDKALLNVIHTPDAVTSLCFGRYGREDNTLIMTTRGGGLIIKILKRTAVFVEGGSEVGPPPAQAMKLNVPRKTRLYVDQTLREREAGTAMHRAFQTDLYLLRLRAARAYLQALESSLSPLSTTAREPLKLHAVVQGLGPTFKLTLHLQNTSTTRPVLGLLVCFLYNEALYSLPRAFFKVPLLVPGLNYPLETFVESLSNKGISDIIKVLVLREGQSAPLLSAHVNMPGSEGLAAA
Assay: co-IP

For “dynein (intermediate chain) (human (endogenous in Jurkat))”, the binding was “binds”.
